Results are given in words; binding and its absence hold for the method and conditions named. In cells and extracts the contact can be indirect. Some entries that bind do so weakly or less than the wild type.
B1: AP-1 complex medium-chain μ1A (AP1M1) (protein, UniProt Q9BXS5 1-423)
chain: MSASAVYVLDLKGKVLICRNYRGDVDMSEVEHFMPILMEKEEEGMLSPILAHGGVRFMWIKHNNLYLVATSKKNACVSLVFSFLYKVVQVFSEYFKELEEESIRDNFVIIYELLDELMDFGYPQTTDSKILQEYITQEGHKLETGAPRPPATVTNAVSWRSEGIKYRKNEVFLDVIESVNLLVSANGNVLRSEIVGSIKMRVFLSGMPELRLGLNDKVLFDNTGRGKSKSVELEDVKFHQCVRLSRFENDRTISFIPPDGEFELMSYRLNTHVKPLIWIESVIEKHSHSRIEYMIKAKSQFKRRSTANNVEIHIPVPNDADSPKFKTTVGSVKWVPENSEIVWSIKSFPGGKEYLMRAHFGLPSVEAEDKEGKPPISVKFEIPYFTTSGIQVRYLKIIEKSGYQALPWVRYITQNGDYQLRTQ

Chains of the proteins cited; added tags and fusions are not shown.
UniProt O95751: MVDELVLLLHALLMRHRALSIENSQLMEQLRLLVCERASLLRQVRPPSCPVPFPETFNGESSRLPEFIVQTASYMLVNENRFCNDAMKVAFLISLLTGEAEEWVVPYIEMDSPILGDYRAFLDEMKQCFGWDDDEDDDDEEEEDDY
UniProt Q96CW1: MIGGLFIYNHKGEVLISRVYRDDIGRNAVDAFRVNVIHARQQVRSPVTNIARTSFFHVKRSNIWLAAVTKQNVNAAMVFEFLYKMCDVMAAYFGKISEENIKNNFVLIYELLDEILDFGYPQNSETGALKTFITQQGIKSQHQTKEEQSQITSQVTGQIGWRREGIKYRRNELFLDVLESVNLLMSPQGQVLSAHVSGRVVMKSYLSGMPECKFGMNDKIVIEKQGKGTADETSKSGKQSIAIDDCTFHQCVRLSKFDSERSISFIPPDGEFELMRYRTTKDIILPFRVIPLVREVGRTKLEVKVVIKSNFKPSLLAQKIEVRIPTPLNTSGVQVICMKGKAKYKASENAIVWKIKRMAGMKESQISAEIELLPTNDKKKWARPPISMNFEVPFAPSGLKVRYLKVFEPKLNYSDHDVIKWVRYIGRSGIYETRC

Biological target: Leucine zipper downregulated in cancer-1 (LDOC1) (human (endogenous in A549 and PC9)) (UniProt O95751)
Experiment: co-IP; endogenous proteins; A549 and PC9 cells serum-starved overnight, then EGF (10 nM) for 30 min; lysates in Pierce IP Lysis Buffer incubated with antibodies against LDOC1, AP1M1 or AP2M1 at 4 °C overnight, protein A-magnetic beads; Western blot

| Molecule | binding |
| --- | --- |
| AP-2 complex medium-chain μ2 (AP2M1) (from UniProt Q96CW1 1-435) | binds |
| B1 | binds |
